Measurements from paper PMC3531493, “Inhibition of a NEDD8 Cascade Restores Restriction of HIV by APOBEC3G” (PLoS Pathogens, 2012).
Results are given in words; binding and its absence hold for the method and conditions named. Binding calls can cover weak binding; strength is not graded here.

Protein sequences, listed by entry. Tags and fused reporters are not part of them. Lines headed by an entry give the natural chain unless they say otherwise; changes in a name come on top. Residues count along the entry.
UniProt Q9UBF6, residues 44-113: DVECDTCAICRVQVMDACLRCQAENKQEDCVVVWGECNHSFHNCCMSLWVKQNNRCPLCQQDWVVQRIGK
UniProt Q969M7: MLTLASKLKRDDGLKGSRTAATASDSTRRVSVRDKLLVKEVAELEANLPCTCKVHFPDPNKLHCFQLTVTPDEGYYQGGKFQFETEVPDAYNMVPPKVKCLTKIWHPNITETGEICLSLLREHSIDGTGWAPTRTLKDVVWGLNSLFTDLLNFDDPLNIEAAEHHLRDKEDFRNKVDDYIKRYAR

Biological target: RBX2 RING domain (44-113) (UniProt Q9UBF6)
Experiment: NMR titration; 15N-HSQC of 50 µM 15N-labelled RBX2 RING with unlabelled E2 added (∼100 µM in Fig. 3D; increasing concentrations in Fig. 5D); 20°C; 100 mM NaCl, 1 mM DTT, 25 mM HEPES pH 7.5; both purified

UBE2F (N92A) (from UniProt Q969M7) (enzyme)
binding: no binding

UBE2F (ΔLoop) (from UniProt Q969M7) (enzyme)
binding: binds
